Patent US5928876A, “Peptide and collagen contraction inhibitor” (Japan Science and Technology Corporation, priority 1996, dated 1999)
Not every detail of the peptide structures is certain; ends, links or a residue may be inferred. Peptide text beside a SMILES is read from it.

Tested on: collagen gel contraction system of fibroblast
Experiment: collagen gel contraction system of fibroblast
Assay type: cell-based

Compound: N=C(N)NCCC[C@H](NC(=O)CN)C(=O)N[C@@H](CCC(=O)O)C(=O)N[C@@H](CO)C(=O)N[C@@H](CCCCN)C(=O)N1CCC[C@H]1C(=O)O [Sequence ID No. 1] (H-GRESKP-OH)
- effect upon collagen gel contraction: have the effect of inhibiting the contraction of collagen gel

Compound: CC(C)C[C@H](NC(=O)[C@@H]1CCCN1C(=O)[C@H](CCCCN)NC(=O)[C@H](CO)NC(=O)[C@H](CCC(=O)O)NC(=O)[C@H](CCCNC(=N)N)NC(=O)CN)C(=O)N[C@H](C(=O)N[C@@H](C)C(=O)N[C@@H](CCC(N)=O)C(=O)N[C@@H](CCC(N)=O)C(=O)N[C@H](C(=O)N[C@H](C(=O)N[C@@H](CCCCN)C(=O)O)[C@@H](C)O)[C@@H](C)O)[C@@H](C)O [Sequence ID No. 2] (H-GRESKPLTAQQTTK-OH)
- effect upon collagen gel contraction: have the effect of inhibiting the contraction of collagen gel
